## Primary screen of a compound library

Source: ChEMBL document CHEMBL3988442, “University of Dundee, Small-Polar-MMV Screening Library” (2021).

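Whole-cell assay for inhibitors of Mycobacterium tuberculosis growth, labelled Cornell in the record; the read-out is not stated. The concentration is filed as 10 mM, unlikely as a test dose, so the dose is not known. Higher means stronger inhibition (inferred from two other growth screens of the library). Of about 53,000 compounds tested this way, about 900 (1.7%) reached 50% or more in at least one test.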

Each number is a percent effect as filed.
The record does not define 0% and 100%; most values in the screen are far below 50% and negative numbers occur (in some assays of this library far below -100).
Compounds were drawn at random from those tested, without regard to their results.

| structure | effect |
|---|---|
| `COc1cccc(CN2CCCC3(CCN(C(=O)N4CCCC4)C3)C2)c1.O=C(O)C(F)(F)F` (stereo unspecified) | 31.58% |
| `CN(C)C(=O)C1CN(Cc2nccs2)CCN(S(C)(=O)=O)C1` (stereo unspecified) | 6.19% |
| `CCOc1nnc(CN2CCC(c3nc4ccccc4[nH]3)CC2)s1` | 12.2% |
| `O=C(O)c1nnn(-c2ccc(OC(F)(F)F)cc2)c1-c1ccncc1` | -20.88% |
| `[H][C@@]12COC[C@]1(C(=O)N(C)Cc1ccccn1)CN(Cc1cnn(C)c1)C2` | 30.4% |
| `Cc1nccn1-c1ccc(NS(=O)(=O)c2cnn(C(C)C)c2)cn1` | 3.581% |
| `CCC(=O)N1CCc2[nH]cnc2C12CCN(CC1CCOC1)CC2` (stereo unspecified) | -8.373% |
| `COCCNC(=O)Nc1ccc(CN2CCOC2=O)cc1` | -51.5% |
| `O=C(C1CCCCN1Cc1nc(-c2ccco2)no1)N1CCCC1` (stereo unspecified) | 17.67% |
| `CC(C)C(=O)N1CCCC([C@@H]2C[C@H](C(F)F)n3ncnc3N2)C1` (stereo partly specified) | 2.952% |
| `COc1cccc(CN(C)C(=O)CN2CCN(c3nccs3)CC2)c1` | -5.699% |
| `O=C1CCCN1Cc1nnc2n1CCCN(C(=O)c1ccc[nH]1)C2` | -14.54% |
| `Cl.NCC1CCC(c2c(C(=O)NCCO)sc3ccccc23)CC1` (stereo unspecified) | -5.644% |
| `O=S1(=O)c2ccccc2C(O)CN1CCO` (stereo unspecified) | -5.537% |
| `COc1cc(C#N)ccc1OCC(=O)N(C1CC1)C(C)c1ccco1` (stereo unspecified) | 15.08% |
| `COCCN(Cc1ccccc1)C(=O)c1csc(-c2nnc[nH]2)n1` | 10.02% |
| `O=C(O)C(F)(F)F.O=C(O)C(F)(F)F.[H][C@@]12CCCO[C@]1([H])[C@H](N1CCN(C)CC1)CN2C(=O)Cc1ccsc1` | 25.59% |
| `Cc1ccc(-c2noc(C(O)CC(C)C)n2)nn1` (stereo unspecified) | 2.392% |
| `Cc1cccc(-c2nnn3c2COC(CNC(=O)N2CCCC2)C3)c1` (stereo unspecified) | -13.65% |
| `Cc1cccc2c(CCNC(=O)NCCC[S+](C)[O-])c[nH]c12` (stereo unspecified) | -8.069% |
| `COCCN1C(=O)C2(CCN(CC3CC3)CC2)c2ccccc21.O=C(O)C(F)(F)F` | 8.25% |
| `O=C(O)C(F)(F)F.[H][C@@]12COC[C@]1(C(=O)NC1CC(F)(F)C1)CN(Cc1ccccc1)C2` | -3.915% |
| `CC(C)c1nc2n(n1)CC(NCCc1cccs1)CC2` (stereo unspecified) | 0.9618% |
| `Cc1noc(C)c1CN(C)C(=O)c1ccc(O)nc1` | -53.05% |
| `OCC(O)CSCc1ccc(F)cc1Cl` (stereo unspecified) | -15.03% |
| `O=C(O)C(F)(F)F.O=C(O)C(F)(F)F.[H][C@]12CCN(C(=O)Cc3ccc(C)cc3)C[C@@]1([H])OCCN(CCN(C)C)C2` | 12.33% |
| `CCC1CN(CC(=O)NC2(C#N)CCCC2)CCN1CCOC` (stereo unspecified) | 11.48% |
| `Cc1nc(CN(C)CC2CCCN(CCc3ccc(Cl)cc3)C2)n(C)n1` (stereo unspecified) | -21.53% |
| `CCOCc1cnc2n1CCN(C(=O)Cc1ccco1)C2C` (stereo unspecified) | 16.93% |
| `Cn1cccc1C(=O)N1CCc2ncnc(N3CCOCC3)c2CC1` | 2.987% |
| `COc1ccc(CNCC2CC2)cc1F` | -0.2806% |
| `CNC(=O)CCNC(=O)CCc1c(C)nc2cc(O)nn2c1C` | -18.02% |
| `O=S(=O)(NC1=NCN(CCc2cccs2)CN1)c1ccc(Cl)cc1` | 9.347% |
| `Cn1cc(S(=O)(=O)NC(=O)C2(c3cccc(Cl)c3)CC2)cn1` | 13.9% |
| `CN(CCO)Cc1nnc(C2CCN(C(=O)c3cccnc3)CC2)n1C` | 20.56% |
| `COc1ccc(N2Cc3nc(N)ncc3C2=O)cc1` | -12.14% |
| `Cc1c(CN2CCCC2(C)C(=O)N2CCOCC2)cnn1C` (stereo unspecified) | -6.34% |
| `CC(C)CCN1Cc2c(C(=O)O)ncn2-c2ccccc2S1(=O)=O` | -42.75% |
| `CC(C)N(C)C(=O)C1=NOC2(CCN(C(=O)c3cccn3C)C2)C1` (stereo unspecified) | -19.38% |
| `O=c1ncn(-c2ccc(F)cc2)c2ncccc12` | 1.038% |
| `Cn1nnnc1SC1CCN(c2ccccc2Cl)C1=O` (stereo unspecified) | 5.974% |
| `Cn1cc(CNc2nc3cc(Cl)ccc3n2C)cn1` | 16.71% |
| `CCN(CC(=O)NC(C)C)C(=O)C(C)(C)c1ccc2c(c1)OCCO2` | 12.78% |
| `Cn1c2c(c(=O)c3ccccc31)CCC(C)(C)O2` | -1.11% |
| `O=C(c1ccc(-n2cc(Br)cn2)cc1)N1CCN(c2cnccn2)CC1` | -34.89% |
| `Cc1ccc(CNC(=O)C2c3c(ncn3C(C)C)CCN2S(C)(=O)=O)o1` (stereo unspecified) | 30.34% |